Test results as given in PMC5438719.
Results are given in words; binding and its absence hold for the method and conditions named. In cells and extracts the contact can be indirect. Some binding calls cover weakened binding; strength is not graded here. For some assays here: Where a sequence is shown, tags or fusion partners need not be part of it.

Protein sequences, listed by entry. Tags and fused reporters are not part of them.
UniProt Q15022: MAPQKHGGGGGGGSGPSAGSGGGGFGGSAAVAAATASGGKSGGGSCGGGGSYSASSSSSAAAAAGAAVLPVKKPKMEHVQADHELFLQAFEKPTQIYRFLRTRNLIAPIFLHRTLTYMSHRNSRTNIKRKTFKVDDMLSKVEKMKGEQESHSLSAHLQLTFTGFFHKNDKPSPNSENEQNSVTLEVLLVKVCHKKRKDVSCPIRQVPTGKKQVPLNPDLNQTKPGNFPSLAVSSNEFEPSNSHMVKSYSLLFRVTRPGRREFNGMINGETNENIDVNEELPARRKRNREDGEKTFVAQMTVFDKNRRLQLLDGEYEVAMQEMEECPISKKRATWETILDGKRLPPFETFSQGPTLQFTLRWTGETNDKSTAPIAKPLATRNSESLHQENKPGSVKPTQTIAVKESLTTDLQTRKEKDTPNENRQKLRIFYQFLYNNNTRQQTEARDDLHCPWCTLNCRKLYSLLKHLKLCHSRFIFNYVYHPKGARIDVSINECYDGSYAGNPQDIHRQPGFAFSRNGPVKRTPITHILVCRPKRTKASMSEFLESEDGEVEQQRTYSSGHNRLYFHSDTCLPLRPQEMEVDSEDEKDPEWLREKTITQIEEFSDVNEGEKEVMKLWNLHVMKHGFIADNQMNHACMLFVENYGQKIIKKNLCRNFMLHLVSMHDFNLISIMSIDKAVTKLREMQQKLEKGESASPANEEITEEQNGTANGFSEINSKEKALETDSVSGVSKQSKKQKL

T1: brain-derived neurotrophic factor (human (endogenous in HCT-116)) (UniProt P23560)
T1 sequence: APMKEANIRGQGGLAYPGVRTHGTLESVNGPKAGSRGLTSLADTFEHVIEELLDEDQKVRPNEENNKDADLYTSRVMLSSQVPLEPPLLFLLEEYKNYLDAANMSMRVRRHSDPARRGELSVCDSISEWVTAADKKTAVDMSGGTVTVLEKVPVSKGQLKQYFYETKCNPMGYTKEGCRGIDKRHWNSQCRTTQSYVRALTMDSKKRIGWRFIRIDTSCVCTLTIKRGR

T2: uridine diphosphate-glucuronosyltransferase 2B7 (human (endogenous in HCT-116)) (UniProt P16662)
T2 sequence: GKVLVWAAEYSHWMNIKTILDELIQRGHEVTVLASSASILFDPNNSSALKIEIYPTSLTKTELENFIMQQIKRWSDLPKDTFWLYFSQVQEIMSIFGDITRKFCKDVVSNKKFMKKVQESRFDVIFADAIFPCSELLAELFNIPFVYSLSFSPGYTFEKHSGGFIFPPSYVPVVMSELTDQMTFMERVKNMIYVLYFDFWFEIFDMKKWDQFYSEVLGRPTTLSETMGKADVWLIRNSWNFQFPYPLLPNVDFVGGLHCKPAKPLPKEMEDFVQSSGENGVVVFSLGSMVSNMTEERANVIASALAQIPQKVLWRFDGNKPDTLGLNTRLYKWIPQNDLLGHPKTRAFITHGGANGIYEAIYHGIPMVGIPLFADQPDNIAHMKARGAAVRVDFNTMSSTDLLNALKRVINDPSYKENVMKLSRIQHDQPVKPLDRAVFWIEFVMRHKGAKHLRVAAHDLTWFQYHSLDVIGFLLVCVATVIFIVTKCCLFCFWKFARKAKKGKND


Assays:
[1] = target: T1, brain-derived neurotrophic factor (human (endogenous in HCT-116)); test: co-IP; Co-IP assay to determine the interaction between SUZ12 and BDNF; cells and precipitated protein not stated
[2] = target: T2, uridine diphosphate-glucuronosyltransferase 2B7 (human (endogenous in HCT-116)); test: co-IP; normal and morphine tolerance-like (1 uM morphine, 48 h) HCT-116 cells; which protein was precipitated not given

binding [1] | Molecule | binding [2]
binds | SUZ12 (from UniProt Q15022 1-739) | –
– | brain-derived neurotrophic factor (protein, UniProt P23560 19-247) APMKEANIRGQGGLAYPGVRTHGTLESVNGPKAGSRGLTSLADTFEHVIEELLDEDQKVRPNEENNKDADLYTSRVMLSSQVPLEPPLLFLLEEYKNYLDAANMSMRVRRHSDPARRGELSVCDSISEWVTAADKKTAVDMSGGTVTVLEKVPVSKGQLKQYFYETKCNPMGYTKEGCRGIDKRHWNSQCRTTQSYVRALTMDSKKRIGWRFIRIDTSCVCTLTIKRGR | binds
